In article PMC3834822:
No constants are given. Whether binding was seen depends on the method and setting. Some binding calls cover weakened binding; strength is not graded here.

The chains behind the UniProt entries cited, without tags or fusion partners. Residues count along the entry.
UniProt P72525, residues 1-488: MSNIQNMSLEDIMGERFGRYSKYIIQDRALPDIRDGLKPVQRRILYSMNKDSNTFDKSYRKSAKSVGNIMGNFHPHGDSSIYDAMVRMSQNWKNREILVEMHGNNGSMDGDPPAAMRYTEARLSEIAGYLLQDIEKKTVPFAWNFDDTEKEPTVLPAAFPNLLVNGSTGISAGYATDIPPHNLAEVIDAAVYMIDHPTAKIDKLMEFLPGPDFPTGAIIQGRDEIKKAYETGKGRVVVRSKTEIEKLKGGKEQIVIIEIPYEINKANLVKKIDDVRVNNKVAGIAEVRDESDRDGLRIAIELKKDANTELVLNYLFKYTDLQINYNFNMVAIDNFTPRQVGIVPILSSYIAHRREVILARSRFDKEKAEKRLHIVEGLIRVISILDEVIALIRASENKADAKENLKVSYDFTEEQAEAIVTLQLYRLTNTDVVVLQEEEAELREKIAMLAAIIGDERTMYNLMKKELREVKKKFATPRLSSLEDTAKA
UniProt Q59961: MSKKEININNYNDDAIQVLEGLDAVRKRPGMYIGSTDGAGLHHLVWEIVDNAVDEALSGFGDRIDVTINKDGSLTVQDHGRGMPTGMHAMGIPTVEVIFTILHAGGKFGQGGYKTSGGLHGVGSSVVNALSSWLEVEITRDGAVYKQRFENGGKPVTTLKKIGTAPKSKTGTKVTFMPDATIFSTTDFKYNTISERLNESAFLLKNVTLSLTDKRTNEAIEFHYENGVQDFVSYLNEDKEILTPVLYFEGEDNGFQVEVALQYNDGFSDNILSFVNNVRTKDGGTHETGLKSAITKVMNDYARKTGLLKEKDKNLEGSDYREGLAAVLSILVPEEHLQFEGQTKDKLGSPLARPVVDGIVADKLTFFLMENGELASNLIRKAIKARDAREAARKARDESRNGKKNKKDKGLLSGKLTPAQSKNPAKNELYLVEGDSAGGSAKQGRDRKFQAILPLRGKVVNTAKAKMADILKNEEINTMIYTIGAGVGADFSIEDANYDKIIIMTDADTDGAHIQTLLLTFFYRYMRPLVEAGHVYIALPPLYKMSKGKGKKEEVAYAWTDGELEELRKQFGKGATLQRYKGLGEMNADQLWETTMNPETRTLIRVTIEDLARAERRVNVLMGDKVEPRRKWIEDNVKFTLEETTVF

How the values were obtained:
[1] = molecular target: ParC55 as it stands in the ParE-ParC55 fusion protein (Streptococcus pneumoniae) (UniProt P72525); assay: crystal structure; full-length ParE-ParC55 fusion protein with 34 bp V-site DNA (1:2.2 protein:DNA), MgCl2; sitting drop, 50 mM sodium citrate pH 5.0, 4-7% isopropanol; space group P4(2)2(1)2, 3.7 Å; no ATP; both purified
[2] = molecular target: S. pneumoniae topoisomerase IV ParC55 (breakage-reunion domain of ParC) (Streptococcus pneumoniae) (UniProt P72525); assay: crystal structure; ParC55 / full-length ParE (1:1 molar mixture) with 26mer E-site DNA, levofloxacin and MgCl2; sitting drop, sodium cacodylate pH 6.5-7.0, room temperature; space group H32, 6.53 Å; both purified

| binding [2] | Substance | binding [1] |
| --- | --- | --- |
|  | ParC55 as it stands in the ParE-ParC55 fusion protein (from UniProt P72525 1-488) (domain or fragment) | binds |
| binds | S. pneumoniae topoisomerase IV ParC55 (breakage-reunion domain of ParC) (from UniProt P72525 1-488) (domain or fragment) |  |
|  | full-length ParE as it stands in the ParE-ParC55 fusion protein (from UniProt Q59961 1-647) | binds |
| binds | S. pneumoniae topoisomerase IV ParE, full-length (N-terminally tagged) (from UniProt Q59961 1-647) (enzyme) |  |
